Paper PMC3542071
Results are given in words; binding and its absence hold for the method and conditions named. For part of these data: Binding seen in cells or lysates may run through a third protein. Some entries that bind do so weakly or less than the wild type. Sequences can lack the tags named with a protein. Blank lines part the entries; values can stand above or below the binder they belong to.

Legend:
[1] = molecular target: T1, Ecm11 fused to the Gal4 DNA-binding domain (DBD) (budding yeast) (UniProt Q04110); assay: two-hybrid; Gal4 DBD fusion (TRP1 plasmid) and Gal4 AD fusion (LEU2 plasmid) in yeast; growth on medium lacking adenine (GAL4-ADE2 reporter)
T1 sequence: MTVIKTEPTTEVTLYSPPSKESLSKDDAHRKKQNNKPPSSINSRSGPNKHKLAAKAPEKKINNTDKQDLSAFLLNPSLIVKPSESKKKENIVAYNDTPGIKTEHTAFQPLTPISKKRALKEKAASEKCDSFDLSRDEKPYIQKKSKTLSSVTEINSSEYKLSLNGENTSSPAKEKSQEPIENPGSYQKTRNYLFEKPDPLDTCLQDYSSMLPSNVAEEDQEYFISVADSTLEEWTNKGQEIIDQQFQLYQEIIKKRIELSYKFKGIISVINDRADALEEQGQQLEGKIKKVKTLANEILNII

[2] = molecular target: T2, Ecm11-FLAG (budding yeast) (UniProt Q04110); assay: co-IP; native whole cell extracts of meiotic cells; lysis buffer 200 mM NaCl, 10 mM EDTA, 0.05% Igepal CA-630, 50 mM Tris-HCl pH 8.0; anti-FLAG or anti-myc antibody, protein G Dynabeads, Western blotting; in parallel immunoprecipitates treated with Benzonase (co-precipitation resistant to nuclease)
T2 sequence: T1 sequence

myc-Gmc2 (budding yeast) = molecular target: T3, myc-Gmc2 (budding yeast) (UniProt Q06201); assay: as above
T3 sequence: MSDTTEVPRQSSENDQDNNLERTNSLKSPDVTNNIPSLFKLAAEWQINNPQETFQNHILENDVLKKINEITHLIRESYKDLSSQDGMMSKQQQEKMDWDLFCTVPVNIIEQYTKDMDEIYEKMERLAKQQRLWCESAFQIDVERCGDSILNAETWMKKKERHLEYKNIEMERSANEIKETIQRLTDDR

- binding [1]: binds
B1: Gmc2 fused to the Gal4 transcription activation domain (AD) (protein, UniProt Q06201 1-188)
chain: T3 sequence

- binding [2]: binds
B2: myc-Gmc2 (protein, UniProt Q06201 1-188)
chain: T3 sequence

- binding (myc-Gmc2 (budding yeast)): binds
B3: Ecm11-FLAG (protein, UniProt Q04110 1-302)
chain: T1 sequence
